Laboratory results reported in the supplement of paper PMC3334620.
Whole data set: some 33,000 sequences, median “E-score (-0.5 to 0.5)” near -0.0014, cut for the highest 2% near 0.25. The list shows a part of the results.

target: T1, Cad1 (UniProt P24813); test: PBM E-score (8-mer binding enrichment) (E-score (-0.5 to 0.5)); higher = stronger / more preferred TF binding; conditions: protein concentration: 100 nM; construct: GST-full length
T1 sequence: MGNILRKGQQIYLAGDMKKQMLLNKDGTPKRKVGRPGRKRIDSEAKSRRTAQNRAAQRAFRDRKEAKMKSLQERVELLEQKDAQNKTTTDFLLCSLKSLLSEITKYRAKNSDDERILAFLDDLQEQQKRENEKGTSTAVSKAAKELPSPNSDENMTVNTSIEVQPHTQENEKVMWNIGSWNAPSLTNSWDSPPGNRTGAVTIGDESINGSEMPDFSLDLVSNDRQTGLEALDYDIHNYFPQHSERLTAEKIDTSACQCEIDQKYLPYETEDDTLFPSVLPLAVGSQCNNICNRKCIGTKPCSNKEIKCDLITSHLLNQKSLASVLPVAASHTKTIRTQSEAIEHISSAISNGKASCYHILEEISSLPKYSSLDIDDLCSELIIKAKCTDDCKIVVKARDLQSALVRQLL
How it was run: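 The E-score, a modified Wilcoxon-Mann-Whitney statistic, was computed by the Universal PBM Analysis Suite for every ungapped eight-base word pooled with its reverse complement. Scans behind it were normalised with masliner after bound GST-tagged yeast transcription factors were detected with fluorescent anti-GST. The proteins, at about 100-200 nM, had been applied to universal all-10-mer Agilent arrays made double-stranded by primer extension.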

Sequence	PBM E-score
CCGCAGGA	-0.122
ACCGAAGC	-0.192
ATCGCGCG	0.282
ACGAAGGC	-0.219
ACGCCTCT	-0.183
CGCCGATA	0.137
GATCATCA	-0.0788
AGGCGACC	-0.22
GCCAGCCC	-0.0394
CCGTAAAC	0.0152
CCATGGAC	0.0444
ACAGAAGT	0.0159
ATCGATCA	0.142
TCACCTGA	-0.0665
ACTGTAGG	0.183
ACGAAGGA	-0.146
TCTTAAAA	0.14
GTTATGGA	0.141
AAAGGTCG	-0.19
CTTACGTC	-0.0353
TCATTAAA	0.265
TCCATGCA	0.165
CACTCCGA	-0.198
ACTCTACA	-0.118
AGCACGCT	-0.181

Sequence	PBM E-score
AATGCCCG	-0.189
AAGCACCA	-0.0991
CCTCTGCC	-0.303
ACCAATAG	-0.201
ATTTGCCG	0.0772
CTCTCCTA	-0.129
AACATACG	0.193
AGTGCTTG	-0.00083
CGAATGTC	0.0955
AACAGCGA	-0.141
ATGAACAA	0.188
GAGGCTAC	-0.142
AATAGGCA	-0.0277
CGAGTTTC	0.101
AGTGGTTG	0.0453
ACGGCGTG	0.16
GAAGGACC	-0.162
GAATAGCC	-0.199
ACCTTACC	0.0685
TAGCAACA	0.175
CCGCTAGC	-0.221
GGACGCGA	0.0385
AGCTGTAT	-0.0557
GCCGTACA	0.146
CCCGCATA	-0.0109

Sequence	PBM E-score
ATTTCTGC	0.235
CTTAAGCA	0.0927
AGAGAGGA	-0.277
CCGCCAAC	-0.0934
GTGAGAAA	0.0363
CCACGGGG	-0.351
GTTAGAAA	0.127
AAACAACC	-0.0909
AAAGAGTT	-0.181
AATTATTG	0.114
GAGGAGGA	-0.137
CCCTGCCG	-0.224
GTGTCGTA	0.109
ACCGGTAA	-0.0905
AATATGAC	0.101
CCTATTAA	-0.00224
ACCGTTAG	-0.0588
AGCCAATG	-0.126
CTCTCAGA	-0.108
ACTCGTGG	0.0496
CAGATAAC	0.163
GTGCCGTA	0.0122
GGTACGCA	0.0977
GTGCGTCA	0.0271
CAACTAGC	0.234

Sequence	PBM E-score
CTTTTAAC	-0.0503
CGGACAGA	0.132
CTTATGTA	0.175
ATCCAGCC	-0.0611
TAACGTAA	0.225
ACACGCGA	0.143
CCCGGACA	0.039
TAGATTCA	-0.0561
AAAGTCCG	0.0869
AACTTGGT	0.0836
AGACTGAA	-0.102
CCCGTTCG	0.016
ACCTCCAT	-0.189
GTCGGTCA	-0.12
CACGAGAC	0.0717
CCGAACTA	-0.0237
ATTCAGAG	0.127
CGTATCAG	0.0211
AGAATCGA	0.0389
ACGCCTAG	-0.161
AAACGGTT	-0.117
CGGGTCAC	-0.088
AAACGAAT	0.017
AGAACGAC	-0.0636
CAGTAAGG	-0.084

Sequence	PBM E-score
CTTAGCGC	0.243
CGCTCGAC	-0.178
CTCCTGAC	0.0488
TCGGATCA	0.166
CAGGTATG	-0.062
AGTATTGG	-0.102
ACCGTGCT	-0.0978
GGACCGCC	-0.204
AAAGGATG	0.0537
GAGTTCAC	0.144
AAAAAGCA	0.0714
TACCAATA	0.123
TCACTACA	0.224
CCCCCTAA	-0.347
AAAGTCAC	-0.0757
CCACATAG	-0.104
GCGGGACA	0.149
AGTTACAT	-0.122
CGTGGCGC	-0.0933
CTGCTAAA	0.0566
AGATGGTA	-0.0232
CAAGGGAC	-0.0828
CACGGGTA	0.0219
AAACGTAA	0.139
ATATCACA	-0.0323

Sequence	PBM E-score
ACCCTTAG	-0.125
TATTCAGA	0.137
ATCGTTCC	-0.109
AGCGTCTG	-0.0442
AGACCATG	-0.219
CTTTCGAA	-0.162
ATAGGTAC	-0.0816
ACCTAGGG	-0.0226
AGAACTTA	0.194
GTTAGAGA	-0.156
AATTCCCA	0.0646
CTCTACTC	-0.1
AAACTAGA	-0.0395
AGGCTAGC	-0.136
AGTTCTAG	0.0566
AACTTCAC	0.17
CCCTTTCG	-0.0518
AAAGACAC	-0.065
ATACTACC	0.0181
CAGCCAAG	-0.0374
AACTGGGG	-0.238
ATGTAACG	0.257
GATGAACC	-0.0181
GATGGGCC	-0.0485
ATAGTCCG	0.128

Sequence	PBM E-score
CGAACAAC	0.125
ATAATACA	0.263
CGTCAGCC	0.168
AGTCATAG	0.0922
TAAGAGAA	0.013
TGAACACA	0.0608
GATGGCTA	-0.079
CGGCTAAG	0.0298
CTCGAGGC	0.127
AAAGCTAG	-0.0889
CCGGCACG	0.0437
GGGTCCCA	-0.117
CCCCGCAG	-0.126
ACGAAAAA	-0.045
CCTCTATA	0.0137
ATTGTCGC	0.115
ATATGAGG	0.00714
CGCAGCGA	0.175
CGCGCGTC	0.138
CGCAGGCC	0.0274
CGAAGCCC	-0.163
GGCCACAA	-0.0332
AAGCAGTG	0.0829
GAAACGGA	0.195
CAATATAA	0.283

Sequence	PBM E-score
TGCGAGCA	0.0777
CGTACGGC	-0.0837
ATATAACG	0.225
CACGTCAC	0.144
GGGATCCA	-0.0302
CGTGTAGA	0.0137
AGGTGACG	0.0321
AAGAGTCG	0.0695
CCCGAGAA	0.0293
ATTGAACA	0.0432
ATACCCAG	-0.229
GGTGACTA	0.114
CCTGATGC	0.142
AACCCATT	-0.00078
ACGGCTAG	-0.176
CGGCCAGA	0.149
ACTGTATG	0.0155
CTTAGATC	-0.0415
CTGAACAA	0.155
CGAAATCG	0.124
GATGGTCA	-0.0321
AAATCAGG	0.0752
CCAGAGGA	-0.228
ACACGAGG	0.0213
CCGAACGC	0.107

Reformatted: results already given.
Sequence,PBM E-score
ACCGTGCT,-0.0978
GGACCGCC,-0.204
GAGTTCAC,0.144
AAAAAGCA,0.0714
TACCAATA,0.123
TCACTACA,0.224
CCCCCTAA,-0.347
AAAGTCAC,-0.0757
CCACATAG,-0.104
GCGGGACA,0.149
AGTTACAT,-0.122
CGTGGCGC,-0.0933
CTGCTAAA,0.0566
AGATGGTA,-0.0232
CAAGGGAC,-0.0828
CACGGGTA,0.0219
AAACGTAA,0.139
ATATCACA,-0.0323
ACCCTTAG,-0.125
ATCGTTCC,-0.109
AGCGTCTG,-0.0442
AGACCATG,-0.219
CTTTCGAA,-0.162
ATAGGTAC,-0.0816
ACCTAGGG,-0.0226
AGAACTTA,0.194
GTTAGAGA,-0.156
AATTCCCA,0.0646
CTCTACTC,-0.1
AAACTAGA,-0.0395
AGGCTAGC,-0.136
AGTTCTAG,0.0566
AACTTCAC,0.17
CCCTTTCG,-0.0518
AAAGACAC,-0.065
ATACTACC,0.0181
CAGCCAAG,-0.0374
AACTGGGG,-0.238
ATGTAACG,0.257
GATGAACC,-0.0181
GATGGGCC,-0.0485
ATAGTCCG,0.128
CGAACAAC,0.125
ATAATACA,0.263
CGTCAGCC,0.168
AGTCATAG,0.0922
TAAGAGAA,0.013
TGAACACA,0.0608
GATGGCTA,-0.079
CGGCTAAG,0.0298
CTCGAGGC,0.127
AAAGCTAG,-0.0889
CCGGCACG,0.0437
GGGTCCCA,-0.117
CCCCGCAG,-0.126
ACGAAAAA,-0.045
CCTCTATA,0.0137
ATTGTCGC,0.115
ATATGAGG,0.00714
CGCAGCGA,0.175
CGCGCGTC,0.138
CGCAGGCC,0.0274
CGAAGCCC,-0.163
GGCCACAA,-0.0332
AAGCAGTG,0.0829
GAAACGGA,0.195
CAATATAA,0.283
TGCGAGCA,0.0777
CGTACGGC,-0.0837
CACGTCAC,0.144
GGGATCCA,-0.0302
CGTGTAGA,0.0137
AGGTGACG,0.0321
AAGAGTCG,0.0695
CCCGAGAA,0.0293
ATTGAACA,0.0432
ATACCCAG,-0.229
GGTGACTA,0.114
CCTGATGC,0.142
AACCCATT,-0.00078
ACGGCTAG,-0.176
CGGCCAGA,0.149
ACTGTATG,0.0155
CTTAGATC,-0.0415
CTGAACAA,0.155
CGAAATCG,0.124
GATGGTCA,-0.0321
AAATCAGG,0.0752
CCAGAGGA,-0.228
ACACGAGG,0.0213
CCGAACGC,0.107

The listing continues:

Sequence	PBM E-score
AAGGGTAA	-0.04
GAATGGAA	0.0297
GGATCGGA	-0.0778
CCTCCGAG	-0.0215
TGCAAGAA	-0.113
GGAGCTGA	-0.127
ACTGCTCC	0.0071
AGTCGGGC	-0.0725
AAGTCACC	-0.142
CTAAGCTA	0.135
AACGCGTG	0.247
CTTCCTCC	-0.248
AGGTTCAG	-0.0895
CTTAAAAA	0.0846
ACGTCGGA	-0.093
ACAGCTGA	-0.0375
AGAATTAT	0.191
ACCAACCC	-0.0921
CATGGACG	0.00038
CGCGCCGC	0.112
CTGTGCCA	-0.0318
CGCTCCCG	-0.0235
GTCTCCCA	-0.177
ATTTGATG	0.148
ACGCTCTG	0.0162

Sequence	PBM E-score
CCACCATA	-0.0653
ACATTCAC	0.0778
ACGTTAAC	0.102
CGAAGATA	0.238
CCTGCGCG	0.142
CCGCCTCA	-0.208
AGAAGGGG	-0.333
CATCCTTA	0.064
GAAATCTC	-0.0123
GGCCGTCA	-0.128
ATTGACTA	0.0806
CCAGGGAG	-0.403
CTCTTGGA	-0.0273
CTGTTCCA	0.00315
AAGCAGGC	-0.148
TCTGCACA	0.0825
GACTGTTA	0.0212
CCGAGTTA	-0.0933
ATCATCCG	-0.0578
ACCCGGCT	-0.0947
GACGGCCC	-0.34
TCGGCACA	-0.0457
AGGAGTCC	-0.242
ATGGGTGC	-0.103
CTTCGTGA	-0.0549

Sequence	PBM E-score
CTGCACAA	0.0256
CAACCGAC	0.252
AGCACACA	0.0604
AAACACTC	-0.00242
AGGATCTC	-0.179
AGATGAGA	0.0716
AATCTAAA	0.111
CTGATATC	0.0906
AACGATGG	-0.103
ACAGAACT	0.117
ACCCTGAT	-0.0429
ACACAGTA	0.0407
ATTTGACC	0.0357
AAGTCTAG	-0.155
ACCATGAC	0.0327
GCGGAAAA	0.0254
GCAAGGAC	-0.172
GCACCTGA	0.114
AAGACAAC	0.336
CAGAGAGG	-0.329
GGAGTGAC	0.148
CCTTCTCG	-0.189
GTGCACGA	0.0687
ATGATATG	0.29
CACCGCTC	0.00263

Sequence	PBM E-score
ACTTTGAA	-0.0796
GTCGAACA	0.133
CAGTAGTC	-0.207
ACTTAGCG	0.121
AGGCAAAC	-0.106
ATCACCAC	0.245
ATAAGGGC	-0.0823
CGATTGGA	-0.00502
GTCGTCAA	0.0753
GAATATAC	0.067
CCTCACAA	-0.0594
AATCTCGT	0.115
TAAAAATA	0.277
ATGAAGTA	-0.00826
AGTTCAGC	-0.137
AACAACAG	0.0644
CAAGGACA	-0.0495
AATCGACG	0.13
ATATCTTG	-0.00561
GGGCACTA	-0.0902
ACTATAAA	0.162
CGTATTGA	0.137
AAGAATGC	0.0333
ACCCTCCG	-0.296
ACCGGACG	0.0174

Sequence	PBM E-score
CATAGTCG	-0.0299
CTGGTAGC	0.0507
CGTCAAAA	0.131
ATATGGAA	0.0209
GTGGTAAC	-0.0342
AGCGCTTG	0.0313
TAACTTAA	0.259
CGCGCCCA	0.122
TATCAACA	0.0364
ACGGCTAA	0.165
GCAGTCGA	-0.0242
GGCGGTGA	-0.162
ACCTTTAC	0.0425
GAAATAAC	0.133
CACGAGTG	-0.0974
AACAGTGC	0.082
CTTAATAA	0.383
GAGACAAA	-0.167
ACAGAAAG	-0.0964
ATATGCAT	0.075
AGCACATG	0.123
CAGGTCCC	-0.169
GTATAGTA	-0.01
CTCAAAGA	-0.107
AGAGTGTC	0.198

Sequence	PBM E-score
AGTTGGTC	-0.0544
ATTCGAAA	0.119
GGATGCAC	-0.0779
GCCGGCAC	0.184
GGGGCCAC	-0.205
CAAATCGC	-0.0674
GAGGGACC	-0.204
CTTAAGTC	-0.0312
AACGCCCT	-0.119
ACGCTCGG	0.0614
CGGAGGAG	-0.31
CAACAGCG	-0.0537
CCGAACCG	0.0692
AGCGACAT	0.0338
ATTATACA	0.129
CAAGGAGA	-0.324
AAAACGAT	0.0683
ATGTGTGC	-0.174
CTTGCGGA	-0.201
